# Where a name gives a salt, the structure may show the parent alone. The list shows a part of the results. Repeats in this data set agree poorly, so a single value says little.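 The human kidney-derived cells carry a stably integrated construct of eight TEAD-binding elements driving luciferase, read by luminescence in a drug-repurposing library screen. A compound counts as a hit when its signal is more than five robust Z scores above the plate mean.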
# Tested on: HEK293A TEAD-LUC reporter
# Test: TEAD-luciferase reporter activity (YAP activation), robust Z score vs plate; higher = stronger YAP/TEAD activation
# Settings: 24 h
Compound,TEAD-luciferase reporter activity (compound concentration: 200 nM),TEAD-luciferase reporter activity (compound concentration: 2 uM),TEAD-luciferase reporter activity (compound concentration: 10 uM)
O=C(O)c1cc(=O)c2cc(OCC(O)COc3cccc4oc(C(=O)O)cc(=O)c34)ccc2o1 (stereo unspecified),inactive: -0.467,inactive: -0.947,inactive: 1.19
Nc1nc(N2CCN(C(=O)c3ccc(OCc4ccccc4)cc3)CC2)nc2ccccc12,inactive: -2.05,inactive: 0.859,inactive: 3.34
CNc1nc(Nc2ccc(-n3cnc(C)n3)c(OC)c2)nc2c1CC[C@H]2c1ccc(F)cc1,inactive: -1.46,inactive: 0.592,inactive: -0.821
c1ccc(/N=C(\NC2=NCCCCCC2)N2CCOCC2)cc1,inactive: 1.27,inactive: -1.11,inactive: 1.56
CC[C@H](C)[C@@H](NC(=O)[C@@H](Cc1ccc(O)cc1)NC(=O)[C@@H](N)C(C)C)C(=O)N[C@@H](Cc1cnc[nH]1)C(=O)N1CCC[C@@H]1C(=O)N[C@@H](Cc1ccccc1)C(=O)O,inactive: -0.609,inactive: -1.16,active: 5.18
NCC(=O)O [Glycine],–,inactive: -0.187,–
NCC(=O)O,inactive: 2.4,–,inactive: -1.62
COc1ccccc1C(C(=O)O)=C(c1ccccc1)c1ccccc1,inactive: 2.81,inactive: -0.235,inactive: 1.26
CC(=C/C=C/C(C)=C/C(=O)O)/C=C1\CCCc2ccccc21,inactive: -0.773,inactive: 0.172,inactive: -1.01
COc1cc(OC)c2c(C)c(C(=O)c3ccc(Br)cc3)oc2c1,inactive: -0.977,inactive: 1.27,inactive: -0.52
CC(C)(N)[C@H](NC(=O)c1ccc(C#CC#C[C@H]2C[C@@H]2CO)cc1)C(=O)NO,inactive: -1.44,inactive: -0.577,inactive: -0.396
CCN(CC)CCOC(=O)Cc1cccc2c(=O)cc(-c3ccccc3)oc12,inactive: 0.633,inactive: -0.65,inactive: 0.965
Cc1cc(N2CCSCC2)c(C#N)c(C)n1,inactive: -1.64,inactive: 3.46,inactive: 0.898
Cc1c(F)c(N2CC[C@H](N)C2)nc2c1c(=O)c(C(=O)O)cn2-c1ccc(F)cc1F,inactive: -0.0342,inactive: 2.25,inactive: 0.417
O=C(O)c1ccc2c(c1)nc(-c1ccc(OCc3cc(N4CCCC4=O)ccc3-c3ccc(Cl)cc3)cc1F)n2C1CCCCC1,inactive: 0.756,inactive: -1.72,inactive: -0.959
COC(=O)N[C@H](C(=O)N1CCC[C@H]1C(=O)N[C@H](C(=O)C(F)(F)F)C(C)C)C(C)C,inactive: -0.345,inactive: 1.41,inactive: 1.25
N#Cc1ccccc1CN1CCCCC12Cc1ccccc1CNC2=O (stereo unspecified),inactive: -2.02,–,inactive: 1.1
COC(=O)c1cccnc1N1CCN(CCCC(c2ccc(F)cc2)c2ccc(F)cc2)CC1,inactive: -0.577,inactive: -1.11,inactive: -0.15
COc1ccc(CCNCC(O)COc2cccc(C)c2)cc1OC (stereo unspecified) [bevantolol],–,inactive: 0.964,–

# As entered above:
# For TEAD-luciferase reporter activity (compound concentration: 200 nM), CNc1nc(Nc2ccc(-n3cnc(C)n3)c(OC)c2)nc2c1CC[C@H]2c1ccc(F)cc1 reads inactive: -1.46
# For TEAD-luciferase reporter activity (compound concentration: 2 uM), COc1ccc(CCNCC(O)COc2cccc(C)c2)cc1OC (stereo unspecified) [bevantolol] reads inactive: 0.964
# For TEAD-luciferase reporter activity (compound concentration: 10 uM), COc1cc(OC)c2c(C)c(C(=O)c3ccc(Br)cc3)oc2c1 reads inactive: -0.52

# Continuation:

Compound,TEAD-luciferase reporter activity (compound concentration: 200 nM),TEAD-luciferase reporter activity (compound concentration: 2 uM),TEAD-luciferase reporter activity (compound concentration: 10 uM)
COc1ccc(CCNCC(O)COc2cccc(C)c2)cc1OC (stereo unspecified) [Bevantolol Hydrochloride],inactive: -0.968,inactive: -0.717,inactive: -0.531
C[C@]12C=CC(=O)C=C1C(Cl)=C[C@@H]1[C@@H]2[C@@H](O)C[C@@]2(C)[C@H]1CC[C@]2(O)C(=O)CO,inactive: 0.597,inactive: 0.411,inactive: 1.12
C=CC(=O)O [Acrylic Acid],inactive: -1.88,inactive: -0.196,inactive: 0.241
Oc1ccc2c(c1)OC[C@@H](c1ccccc1)[C@H]2c1ccc(OCCN2CCCC2)cc1,inactive: 0.52,inactive: 0.639,inactive: 0.776
C#C[C@]1(O)CC[C@H]2[C@@H]3[C@H](C)CC4=C(CCC(=O)C4)[C@H]3CC[C@@]21C [tibolone],–,inactive: -0.000493,–
C#C[C@]1(O)CC[C@H]2[C@@H]3[C@H](C)CC4=C(CCC(=O)C4)[C@H]3CC[C@@]21C,inactive: -0.00345,–,inactive: 1.78
CC(C)c1cc(C(=O)N2Cc3ccc(CN4CCN(C)CC4)cc3C2)c(O)cc1O,inactive: 1.85,inactive: -1.3,inactive: -3.23
O=C([C@@H]1CSC(c2cccnc2)N1)N1CCN(CCCOc2c(-c3ccccc3)oc3ccccc3c2=O)CC1 (stereo partly specified),inactive: -0.443,inactive: 0.113,inactive: 0.0952
CCCCNc1nc(NC)nc(Cl)c1SC,inactive: 4.23,inactive: -0.14,inactive: 1.76
CCOCCn1nc(C(N)=O)c2nc(N(C)CC)nc(Nc3cc(C)ccn3)c21,inactive: -0.711,inactive: -0.393,inactive: 0.442
CC1(C)N=C(N)N=C(N)N1OCCCOc1cc(Cl)c(Cl)cc1Cl,inactive: -0.626,inactive: -0.772,inactive: 0.0803
CN1C(=O)CN2CCc3ccccc3C2c2cc(Cl)ccc21 (stereo unspecified),inactive: -0.855,inactive: -0.267,inactive: 1.93
COCCCOc1ccnc(CSc2nc3ccccc3[nH]2)c1C [Rabeprazole-thioether],inactive: -0.95,inactive: 2,inactive: 1.76
COc1cc(OC)c(/C=C/S(=O)(=O)Cc2ccc(OC)c(NCC(=O)O)c2)c(OC)c1 [Rigosertib sodium],inactive: 0.631,inactive: 2.52,inactive: 4.22
CC1=C(C(=O)OCCN2C(=O)c3ccccc3S2(=O)=O)C(c2ccccc2[N+](=O)[O-])C(C(=O)OC(CN2CCOCC2)CN2CCOCC2)=C(C)N1 (stereo unspecified),inactive: -1.74,inactive: -0.994,inactive: -0.475
CN1CCC[C@@H]1CCO[C@](C)(c1ccccc1)c1ccc(Cl)cc1 [Clemastine fumarate],inactive: 1.56,–,active: 5.36
CN1CCC[C@@H]1CCO[C@](C)(c1ccccc1)c1ccc(Cl)cc1 [clemastine fumarate],–,inactive: -2.02,–
COc1cc(-c2cnn3c(O)ncnc23)ccc1S(=O)c1ccccc1 (stereo unspecified),inactive: 2.73,active: 5.69,inactive: 0.86
CCOc1nc2cccc(C(=O)OCOC(=O)OC3CCCCC3)c2n1Cc1ccc(-c2ccccc2-c2nnn[nH]2)cc1.NS(=O)(=O)c1cc2c(cc1Cl)NCNS2(=O)=O,inactive: 0.681,inactive: 1.13,inactive: 0.7

Compound,TEAD-luciferase reporter activity (compound concentration: 200 nM),TEAD-luciferase reporter activity (compound concentration: 2 uM),TEAD-luciferase reporter activity (compound concentration: 10 uM)
COc1cc(N)c(Cl)cc1C(=O)NCCCS(=O)(=O)Cc1ccccc1,inactive: -0.415,inactive: 0.683,inactive: -1.66
CCCCCCCCCCCCCCCC[N+](C)(C)CCN(Cc1ccc(OC)cc1)c1ncccn1,inactive: -0.124,–,inactive: -1.09
CCCCCCN1CCN(/C(=N/CC(C)C)c2ccccc2)CC1,inactive: -1.42,inactive: 1.83,inactive: 0.148
C/C(=C\c1csc(C)n1)[C@@H]1C[C@@H]2O[C@]2(C)CCC[C@H](C)[C@H](O)[C@@H](C)C(=O)C(C)(C)[C@@H](O)CC(=O)N1 [Ixabepilone],inactive: 0.125,inactive: -1.2,inactive: 0.193
CC(=O)NO,inactive: 0.07,inactive: -0.548,inactive: 0.367
O=c1c2cnc3ccccc3c2[nH]n1-c1ccccc1,inactive: -1.1,inactive: 0.236,inactive: 2.76
CCC(=O)NS(=O)(=O)c1ccc(-c2c(-c3ccccc3)noc2C)cc1 [parecoxib sodium],inactive: -1.13,inactive: 2.76,inactive: -0.76
CNC(=O)[C@H](C/C=C/c1ccc(N(C)c2ncccn2)cc1)NC(=O)C1CCCCC1,inactive: 0.788,inactive: 1.24,inactive: -0.0572
CC(C)(N)C(=O)N[C@H](COCc1ccc(F)cc1F)C(=O)N1CCC2=NN(CC(F)(F)F)C(=O)[C@]2(Cc2ccccn2)C1,inactive: -1.13,inactive: 1.9,inactive: 4.13
C=C(C)C(=O)NCC(=O)NCCCCCC(=O)NCC(=O)O[C@]1(CC)C(=O)OCc2c1cc1n(c2=O)Cc2cc3ccccc3nc2-1,inactive: -2.86,inactive: -2.3,inactive: -2.09
CC(C)COC(=O)c1ccc(N)cc1,inactive: 1.44,inactive: -1.1,active: 6.44
CC(=O)NC1C(O)OC(CO)C(O)C1O (stereo unspecified) [N-Acetylmannosamine],inactive: -1.28,inactive: -0.533,inactive: 0.192
CSc1ccc(Sc2ccc(Cl)cc2CN(C)C)cc1,inactive: -1.23,inactive: -1.11,active: 7.47
N=C(N)NC(=O)c1nc(Cl)c(N)nc1N,inactive: 1.73,inactive: -0.455,inactive: -0.709
N=C(N)NC(=O)c1nc(Cl)c(N)nc1N [Amiloride hydrochloride],–,inactive: -1.21,–
NCCCC[C@H](NC(=O)c1cccnc1)C(=O)N[C@H](CCC(=O)N1[C@H](C(=O)O)C[C@@H]2CCCC[C@@H]21)C(=O)O,inactive: -1.9,inactive: -0.0375,inactive: 3.4
C=Cc1ccccc1S(=O)(=O)[O-] [2-vinylbenzenesulfonate],inactive: 0.741,inactive: -1.51,inactive: -1.32
CN(C)CCN1C(=O)CC(c2ccccc2)Sc2ccccc21 (stereo unspecified),inactive: -0.586,inactive: -1.21,inactive: 1.51
CC(=O)N(CCC(CCN1CCCCC1)(C(N)=O)c1ccccc1Cl)C(C)C (stereo unspecified),inactive: 1.29,inactive: 0.446,inactive: -0.188
